Experimental data published in article doi:10.1101/2023.06.15.543498.

Amino acid sequences for entries named in this document (tags omitted). A change or cut given only in a name is not applied to a line headed by its entry.
UniProt P0A7L0: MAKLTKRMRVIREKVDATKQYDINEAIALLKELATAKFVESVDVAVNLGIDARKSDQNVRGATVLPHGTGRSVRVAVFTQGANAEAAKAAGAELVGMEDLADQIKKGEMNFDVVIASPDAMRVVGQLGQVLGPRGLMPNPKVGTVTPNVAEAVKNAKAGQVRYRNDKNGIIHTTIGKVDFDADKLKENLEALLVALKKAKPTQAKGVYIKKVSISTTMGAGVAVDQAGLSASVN
UniProt P0A9U3: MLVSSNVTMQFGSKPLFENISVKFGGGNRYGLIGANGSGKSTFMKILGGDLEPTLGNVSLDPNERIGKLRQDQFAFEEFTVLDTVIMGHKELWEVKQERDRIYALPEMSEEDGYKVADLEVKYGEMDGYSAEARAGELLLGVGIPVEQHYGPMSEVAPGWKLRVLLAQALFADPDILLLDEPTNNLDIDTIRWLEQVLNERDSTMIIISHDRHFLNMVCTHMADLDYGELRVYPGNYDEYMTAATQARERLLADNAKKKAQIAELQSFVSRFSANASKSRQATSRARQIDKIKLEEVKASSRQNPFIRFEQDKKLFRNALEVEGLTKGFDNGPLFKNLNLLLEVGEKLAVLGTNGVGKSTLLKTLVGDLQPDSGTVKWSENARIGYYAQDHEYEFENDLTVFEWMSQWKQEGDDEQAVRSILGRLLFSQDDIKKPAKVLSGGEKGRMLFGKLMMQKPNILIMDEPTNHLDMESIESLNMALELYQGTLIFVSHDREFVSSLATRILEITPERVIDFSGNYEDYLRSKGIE

Experiments:
[1] = target: ribosomal protein uL1 (E. coli (endogenous in strain MRE600)) (UniProt P0A7L0); test: cryo-EM structure
[2] = target: ribosomal protein uL1 (E. coli (endogenous in strain MRE600)) (UniProt P0A7L0); test: cryo-EM structure; remark: listed apart in the source

## EQ2-YbiT (hydrolysis-deficient EQ2 mutant of E. coli YbiT) (from UniProt P0A9U3) (enzyme)
[1]
  binding: binds
[2]
  binding: binds

Read-outs that look alike come from different tables or passages of the source. No constants are given. Whether binding was seen depends on the method and setting. Binding calls can cover weak binding; strength is not graded here.
